Data as given in PMC6581795, “Phosphorylation of FANCD2 Inhibits the FANCD2/FANCI Complex and Suppresses the Fanconi Anemia Pathway in the Absence of DNA Damage”.
Results are given in words; binding and its absence hold for the method and conditions named. Some entries that bind do so weakly or less than the wild type. Sequences can lack the tags named with a protein.

Protein sequences, listed by entry. Tags and fused reporters are not part of them. Lines headed by an entry give the natural chain unless they say otherwise; changes in a name come on top.
UniProt Q9BXW9: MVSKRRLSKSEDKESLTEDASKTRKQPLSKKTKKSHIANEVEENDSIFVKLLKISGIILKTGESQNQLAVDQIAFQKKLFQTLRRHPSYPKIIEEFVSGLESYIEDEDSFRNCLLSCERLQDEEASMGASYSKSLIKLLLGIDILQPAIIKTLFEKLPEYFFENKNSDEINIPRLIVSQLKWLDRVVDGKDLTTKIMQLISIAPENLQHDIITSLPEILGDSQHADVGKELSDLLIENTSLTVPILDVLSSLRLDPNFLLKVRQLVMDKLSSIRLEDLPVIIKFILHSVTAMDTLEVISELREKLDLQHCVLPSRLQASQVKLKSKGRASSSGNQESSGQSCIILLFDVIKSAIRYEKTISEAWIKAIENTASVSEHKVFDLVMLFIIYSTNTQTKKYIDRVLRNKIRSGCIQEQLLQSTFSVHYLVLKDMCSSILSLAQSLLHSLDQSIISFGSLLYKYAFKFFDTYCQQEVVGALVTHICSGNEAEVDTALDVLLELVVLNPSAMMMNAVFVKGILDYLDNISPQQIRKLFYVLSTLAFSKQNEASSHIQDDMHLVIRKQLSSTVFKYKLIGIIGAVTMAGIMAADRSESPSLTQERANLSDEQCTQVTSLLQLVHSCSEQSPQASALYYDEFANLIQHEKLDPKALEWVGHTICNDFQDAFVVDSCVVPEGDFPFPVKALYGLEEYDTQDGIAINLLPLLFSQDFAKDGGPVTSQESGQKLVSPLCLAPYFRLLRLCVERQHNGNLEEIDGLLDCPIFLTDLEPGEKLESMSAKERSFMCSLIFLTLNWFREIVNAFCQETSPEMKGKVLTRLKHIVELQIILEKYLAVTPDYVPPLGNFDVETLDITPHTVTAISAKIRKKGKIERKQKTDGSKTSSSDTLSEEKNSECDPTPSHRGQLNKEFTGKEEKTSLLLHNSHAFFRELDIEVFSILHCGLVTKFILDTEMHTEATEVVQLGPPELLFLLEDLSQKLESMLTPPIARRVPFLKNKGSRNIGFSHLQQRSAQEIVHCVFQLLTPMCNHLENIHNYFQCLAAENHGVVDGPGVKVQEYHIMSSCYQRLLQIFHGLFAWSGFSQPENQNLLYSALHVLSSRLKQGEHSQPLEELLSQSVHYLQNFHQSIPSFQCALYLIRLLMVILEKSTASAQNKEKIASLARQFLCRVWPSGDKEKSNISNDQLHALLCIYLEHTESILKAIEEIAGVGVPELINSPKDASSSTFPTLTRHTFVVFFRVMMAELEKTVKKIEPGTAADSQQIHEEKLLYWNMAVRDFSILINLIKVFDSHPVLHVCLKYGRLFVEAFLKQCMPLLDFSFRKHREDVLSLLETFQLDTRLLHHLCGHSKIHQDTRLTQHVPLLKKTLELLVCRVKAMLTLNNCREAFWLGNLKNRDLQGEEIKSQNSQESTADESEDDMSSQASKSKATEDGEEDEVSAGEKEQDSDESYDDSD
UniProt Q9NVI1: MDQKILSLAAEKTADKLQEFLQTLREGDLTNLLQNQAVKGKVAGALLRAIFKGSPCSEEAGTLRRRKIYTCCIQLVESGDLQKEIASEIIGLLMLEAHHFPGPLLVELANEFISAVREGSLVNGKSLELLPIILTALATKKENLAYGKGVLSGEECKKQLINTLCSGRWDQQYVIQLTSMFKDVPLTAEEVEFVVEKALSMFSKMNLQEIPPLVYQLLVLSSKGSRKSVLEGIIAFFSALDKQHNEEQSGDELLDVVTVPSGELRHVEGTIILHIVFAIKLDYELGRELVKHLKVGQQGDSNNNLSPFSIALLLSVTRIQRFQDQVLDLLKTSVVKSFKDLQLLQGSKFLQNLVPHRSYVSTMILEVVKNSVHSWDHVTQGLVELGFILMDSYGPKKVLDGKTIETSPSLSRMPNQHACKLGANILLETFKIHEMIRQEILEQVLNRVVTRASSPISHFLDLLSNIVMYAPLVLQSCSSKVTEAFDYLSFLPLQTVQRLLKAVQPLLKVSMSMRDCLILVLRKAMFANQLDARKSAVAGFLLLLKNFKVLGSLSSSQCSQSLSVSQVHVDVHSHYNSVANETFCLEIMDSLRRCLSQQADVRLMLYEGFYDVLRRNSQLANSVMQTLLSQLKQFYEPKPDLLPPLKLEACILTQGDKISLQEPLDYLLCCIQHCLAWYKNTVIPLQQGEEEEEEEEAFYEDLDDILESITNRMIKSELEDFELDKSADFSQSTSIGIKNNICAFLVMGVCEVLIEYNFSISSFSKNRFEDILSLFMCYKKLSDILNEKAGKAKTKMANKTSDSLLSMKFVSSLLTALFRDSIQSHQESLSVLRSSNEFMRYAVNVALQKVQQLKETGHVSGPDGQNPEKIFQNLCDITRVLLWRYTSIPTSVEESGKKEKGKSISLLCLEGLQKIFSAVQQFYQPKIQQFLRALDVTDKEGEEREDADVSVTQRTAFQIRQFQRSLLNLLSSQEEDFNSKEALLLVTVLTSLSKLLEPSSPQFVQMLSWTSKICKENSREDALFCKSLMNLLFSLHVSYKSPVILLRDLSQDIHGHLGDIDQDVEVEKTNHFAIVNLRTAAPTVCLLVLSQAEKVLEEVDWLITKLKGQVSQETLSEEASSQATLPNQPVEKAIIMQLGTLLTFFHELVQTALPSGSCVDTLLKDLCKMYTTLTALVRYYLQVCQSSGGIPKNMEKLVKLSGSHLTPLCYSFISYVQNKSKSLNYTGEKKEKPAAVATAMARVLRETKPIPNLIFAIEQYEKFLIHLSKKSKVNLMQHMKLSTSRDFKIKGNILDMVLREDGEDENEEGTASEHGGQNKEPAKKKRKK

Assays:
Assay in all cases: pull-down; 4 ug Flag-HA-FANCD2/His-FANCI and 1 ug Flag-HA-FANCL mixed in 100 ug/ml BSA, 20 mM Tris-HCl pH 7.5, 100 mM KCl, 5% glycerol, 2 mM beta-mercaptoethanol, 30 C 1 h; captured on Ni-NTA beads at 4 C, washed with 0.1% Tween-20; SDS-PAGE; both purified
[1] = biological target: Flag-HA-FANCD2-6A/His-FANCI complex (human) (UniProt Q9BXW9+Q9NVI1)
[2] = biological target: Flag-HA-FANCD2-6D/His-FANCI complex (human) (UniProt Q9BXW9+Q9NVI1)
[3] = biological target: Flag-HA-FANCD2/His-FANCI complex (human) (UniProt Q9BXW9+Q9NVI1)

Measured: binding

B1: Flag-HA-FANCL (enzyme, UniProt Q9NW38 1-375)
chain: MAVTEASLLRQCPLLLPQNRSKTVYEGFISAQGRDFHLRIVLPEDLQLKNARLLCSWQLRTILSGYHRIVQQRMQHSPDLMSFMMELKMLLEVALKNRQELYALPPPPQFYSSLIEEIGTLGWDKLVYADTCFSTIKLKAEDASGREHLITLKLKAKYPAESPDYFVDFPVPFCASWTPQSSLISIYSQFLAAIESLKAFWDVMDEIDEKTWVLEPEKPPRSATARRIALGNNVSINIEVDPRHPTMLPECFFLGADHVVKPLGIKLSRNIHLWDPENSVLQNLKDVLEIDFPARAILEKSDFTMDCGICYAYQLDGTIPDQVCDNSQCGQPFHQICLYEWLRGLLTSRQSFNIIFGECPYCSKPITLKMSGRKH
binds: all assays above
